The values that follow come from paper PMC7819943, “Rice protein-binding microarrays: a tool to detect cis-acting elements near promoter regions in rice”.

Some of the results follow.

The target of this assay is T1, OsSMF1 (Oryza sativa, UniProt Q6ZLB0 1-436).
T1 sequence: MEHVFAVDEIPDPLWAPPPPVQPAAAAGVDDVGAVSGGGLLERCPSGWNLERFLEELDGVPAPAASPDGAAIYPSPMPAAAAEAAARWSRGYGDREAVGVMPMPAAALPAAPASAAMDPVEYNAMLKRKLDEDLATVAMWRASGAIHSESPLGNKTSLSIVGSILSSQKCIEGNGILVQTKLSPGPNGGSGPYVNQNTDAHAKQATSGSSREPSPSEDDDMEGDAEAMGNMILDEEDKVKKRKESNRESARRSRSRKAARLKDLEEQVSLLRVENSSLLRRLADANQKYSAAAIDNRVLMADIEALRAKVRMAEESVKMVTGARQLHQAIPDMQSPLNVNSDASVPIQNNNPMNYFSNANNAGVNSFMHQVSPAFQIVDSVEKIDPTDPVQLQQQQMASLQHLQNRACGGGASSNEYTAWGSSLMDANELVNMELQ
The experiment in a line: protein-binding microarray (RPBM); PBS, 2% BSA, 51.3 ng/ul salmon testes DNA, 50 uM zinc acetate, 200 nM TF, 25 C, 1 h; high values mean tight binding. The note with it: protein: recombinant; tags: N-terminal polyhistidine and DsRed monomer fusion (pET32a); chain copies: 2; label: CyDye5-dUTP incorporated in the synthesized complementary strand; 3' TTTTT single-stranded linker to array surface; dsDNA, one strand shown. The method in brief: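 Transcription factors were each fused at the N-terminus to a polyhistidine tag plus DsRed and expressed in E. coli BL21-CodonPlus before Ni–NTA purification. Binding to a double-stranded custom Agilent array was carried out with 200 nM protein at 25 °C for 1 h in PBS, 2% BSA, salmon testes DNA and 50 µM zinc acetate. The binding signal is per-feature fluorescence intensity, in arbitrary units, on an Axon 4000B scanner.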
For the sequence “TGGGCATGGGCAACCATCCTTACCCGTCATGTAGTAATGGCGGAGTCACCTAGTGCAG”, the binding signal was 4340 fluorescence intensity (a.u.).
With “TTTTCCGGCCACGATGTCACGACTGCGCCATCACCATCCACGGAGTCACCTAGTGCAG”, the binding signal is 4230 fluorescence intensity (a.u.).
Take “TTGTGTGCATTTCGGCATTTGGCTACAAGATTCTTGCAGTCGGAGTCACCTAGTGCAG”: the binding signal is 39600 fluorescence intensity (a.u.).
On to “CGCCACGCCGCCGATTTATACCCACCTCGTCATGCGCCTCCGGAGTCACCTAGTGCAG”, for which the binding signal was 4840 fluorescence intensity (a.u.).
For “AAAGATTTGTCTCGCAATTTACACGCAATCTGTGTAATTACGGAGTCACCTAGTGCAG”, the binding signal was 3230 fluorescence intensity (a.u.).
Take “ACCACATCACAGCAGTGAGGTGGTTGTTGGCGGAGGAGGGCGGAGTCACCTAGTGCAG”: the binding signal was 4690 fluorescence intensity (a.u.).
As to “CACTGGACGCGTCACATTCACAACAGCATACTATAGTCAGCGGAGTCACCTAGTGCAG”, the binding signal was 7130 fluorescence intensity (a.u.).
In the case of “TGCCCTGTTACGGTTGACAGCTAATTACCTTGATTCGTTTCGGAGTCACCTAGTGCAG”, the binding signal is 9620 fluorescence intensity (a.u.).
To “ACCTCCATGTGTCCGCCAGGTCATCATCATCGCCTCGTAGCGGAGTCACCTAGTGCAG” belongs 15900 fluorescence intensity (a.u.); to “TATTGTCAGTGGCTTGCTTAAACAACATCAACAGTTCTTTCGGAGTCACCTAGTGCAG”, 31300 fluorescence intensity (a.u.).
As to “CATCATCGACAGGTTTCTGTTCCTCAGATCCTTACACATTCGGAGTCACCTAGTGCAG”, the binding signal was 13800 fluorescence intensity (a.u.).
For the sequence “AGCCGCGCAAATTATACCGATCGCCATGTCAACAGACGACCGGAGTCACCTAGTGCAG”, the binding signal is 28900 fluorescence intensity (a.u.).
“ATAAAATTTGGTAAGGCCTATTTAGGCCACAAACCAAACCCGGAGTCACCTAGTGCAG”: the binding signal was 3360 fluorescence intensity (a.u.).
As for “AAACGTCCTTGATATATTGAAATTTGCTGATGCAACACTTCGGAGTCACCTAGTGCAG”, the binding signal is 5210 fluorescence intensity (a.u.).
On to “AGCATTCATATCACATCGGTTTTCGTACTTTTAGCCGGATCGGAGTCACCTAGTGCAG”, for which the binding signal is 3160 fluorescence intensity (a.u.).
For the sequence “ATAAAATGAACGTAAGCTGACGCTGCTTTCGATTGGCTTGCGGAGTCACCTAGTGCAG”, the binding signal is 3900 fluorescence intensity (a.u.).
In the case of “ATGCTGATGCGGTTGTGGTGCTGGTAGTTGCCTTGCGCGTCGGAGTCACCTAGTGCAG”, the binding signal was 3390 fluorescence intensity (a.u.).
“ATAGTGTGCTGCCATTGGATGGCCACGTTGTCCATGAACTCGGAGTCACCTAGTGCAG”: the binding signal is 4940 fluorescence intensity (a.u.).
For the sequence “GGAGCACGACGCACCCAGCGAGCCAGCCATCACGTAAGCTCGGAGTCACCTAGTGCAG”, the binding signal is 4070 fluorescence intensity (a.u.).
For “TGTCATCTCCCTTGGCGCTCAACGTGGCGCCGAATCAACCCGGAGTCACCTAGTGCAG”, the binding signal is 6090 fluorescence intensity (a.u.).
For the sequence “ACCACCATTCGTGCTGCCGCTTGCGTGTTGTTATTACTCCCGGAGTCACCTAGTGCAG”, the binding signal was 4610 fluorescence intensity (a.u.).
Take “GAAGCCTGTGCTTTCTAGACCTCAACACGAGTTTTACCTGCGGAGTCACCTAGTGCAG”: the binding signal was 32900 fluorescence intensity (a.u.).
To “TTGTTTCAACTGTAGTGCAGCCAATCCAAACAGTACTATGCGGAGTCACCTAGTGCAG” belongs 20200 fluorescence intensity (a.u.); to “ACCGCCTCTCCACTCTACCACACCGACACGCACACCCAGCCGGAGTCACCTAGTGCAG”, 4270 fluorescence intensity (a.u.).
On to “TAATCCTCTGTTTTACACGTGTATTTCTATCACATTCCTACGGAGTCACCTAGTGCAG”, for which the binding signal was 17300 fluorescence intensity (a.u.).
For “CACCTCGCTGCATCCAGGGCGAGCCGTGTCACCGTCCTCCCGGAGTCACCTAGTGCAG”, the binding signal was 5720 fluorescence intensity (a.u.).
“TATTTTCAATTTTATAGTTGTTTTATCCTACTCAAACTATCGGAGTCACCTAGTGCAG”: the binding signal is 19600 fluorescence intensity (a.u.).
In the case of “GTTTCCTGATGTTGTGCCAGTGCAGCACGTTGAGGAGGCGCGGAGTCACCTAGTGCAG”, the binding signal was 3330 fluorescence intensity (a.u.).
The figure for “GGATTCGGTCATTTGAGAATGACATATGGGGCCCACGTGGCGGAGTCACCTAGTGCAG” is 5670 fluorescence intensity (a.u.); for “GCAAATACTGTGACTCAGAAGGTGTGGCGATACTAGATTTCGGAGTCACCTAGTGCAG” it is 8300 fluorescence intensity (a.u.).
The figure for “ACTTCCCATTGTTGTTGCCATCGCCGCCGCCGCCGCCGCCCGGAGTCACCTAGTGCAG” is 3420 fluorescence intensity (a.u.); for “GAGAACCCACCCACGTGATCTTTTGTTGCTCAACTTAAGTCGGAGTCACCTAGTGCAG” it is 27400 fluorescence intensity (a.u.); for “AATTTCCCACATCCTCCAATCAAACTGAGATTATAATGCTCGGAGTCACCTAGTGCAG” it is 3300 fluorescence intensity (a.u.).
Regarding “ATTTGGCTCCTGATGACTAATCCGCTTGAAACACCTCGCTCGGAGTCACCTAGTGCAG”, the binding signal is 5200 fluorescence intensity (a.u.).
Regarding “TACGATCTAACGTCAGATATTATCTTAACATCCCTTGTTCCGGAGTCACCTAGTGCAG”, the binding signal was 5880 fluorescence intensity (a.u.).
For “TAATTTGTGGTGTCTGTGTGACTATTTACGTTTCTGGTTACGGAGTCACCTAGTGCAG”, the binding signal was 3180 fluorescence intensity (a.u.).
In the case of “AGGAGAGCAGCATGTCCAACCTGACCTCCTCCGCCTCCACCGGAGTCACCTAGTGCAG”, the binding signal was 13800 fluorescence intensity (a.u.).
On to “CTATAGCTAGCTGCCGTTGCGTGCCAGCTACTACAACACCCGGAGTCACCTAGTGCAG”, for which the binding signal is 3380 fluorescence intensity (a.u.).
“CGGGAGCGTGAGCATCACGGCCACCGCCGCCTCCGCCGCCCGGAGTCACCTAGTGCAG”: the binding signal is 4730 fluorescence intensity (a.u.).
With “GCTTACCATTTCTTGGTTTCAATTGGGTGATGCTGTGTTGCGGAGTCACCTAGTGCAG”, the binding signal is 3370 fluorescence intensity (a.u.).
For the sequence “CGCCGCGTAGCCTCGCCCACGGCGATGACGACGGCGGCGGCGGAGTCACCTAGTGCAG”, the binding signal is 3660 fluorescence intensity (a.u.).
For “GGTTGAGTATTTGTCATGGTTTGTGGATGCATGGATGGTTCGGAGTCACCTAGTGCAG”, the binding signal was 4180 fluorescence intensity (a.u.).
